# Record: PubChem BioAssay AID1053208 (Peter MacCallum Cancer Centre, 2014)
# Aim: 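Find knock-downs that sensitise mouse osteosarcoma cells to doxorubicin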 (primary screen)
# Cells: mouse osteosarcoma cells, early-passage culture from an engineered mouse model of fibroblastic bone tumour
# Reagent: siRNA pool against mouse genes, 40 nM
# Duration: about 120 h (48 h before drug, then 72 h with drug)
# Challenge: doxorubicin 100 nM for 72 h, roughly 30-40% inhibitory dose
# Detection: 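Luminescent ATP signal taken as viability with or without 100 nM doxorubicin for 72 h; mean of two wells set against non-targeting siRNA and turned into robust z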
# Reading the numbers: viability z-score with doxorubicin and doxorubicin viability vs non-targeting: higher = more viable cells under doxorubicin; viability z-score without drug: higher = more viable cells with knock-down alone; z-score of drug to no-drug ratio: higher = less drug sensitisation by knock-down
# Rule for the call: 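a pool counts as active when its viability z-score with doxorubicin is -2 or below and its z-score without drug lies between -2 and 2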
# The deposit covers about 17,000 reagents; shown is an unselected part. In the full data, 788 (4.7%) got an active call. 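Calls rest on z-score classes alone; an extra cut-off of viability at most 70% of control was not applied to them.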 A number with no mark means an inactive call. Reagent sequences are not shown.
target,combined z-score class,viability z-score with doxorubicin,viability z-score without drug,z-score of drug to no-drug ratio,doxorubicin viability vs non-targeting
Nudcd2 (GeneID 52653),no change with or without drug,1.01,0.67,0.67,1.03
Irag1 (GeneID 17540),no change with or without drug,0.9,-1.35,2.14,1.02
Ptgds (GeneID 19215),no change with or without drug,0.11,1.01,-0.45,0.95
B3galt1 (GeneID 26877),no change with or without drug,-0.79,-1.01,0,0.87
Zkscan8 (GeneID 93681),high cell count with doxorubicin only,2.25,0.84,1.8,1.14
Coq5 (GeneID 52064),low cell count with doxorubicin only (active),-2.02,0.84,-2.47,0.76
Cdc42bpb (GeneID 217866),no change with or without drug,0.9,0.67,0.56,1.02
Elavl4 (GeneID 15572),no change with or without drug,0,1.52,-0.9,0.94
Rilpl2 (GeneID 80291),no change with or without drug,0.11,-0.17,0.34,0.95
Usp46 (GeneID 69727),no change with or without drug,1.57,-0.17,1.91,1.08
Entrep2 (GeneID 70638),no change with or without drug,0,1.35,-0.79,0.94
Srd5a2 (GeneID 94224),no change with or without drug,0.22,-0.67,0.79,0.96
Or10p21 (GeneID 258861),no change with or without drug,0,0.51,-0.22,0.94
Osbpl9 (GeneID 100273),low cell count with doxorubicin only (active),-2.7,-1.18,-2.02,0.7
Iqcg (GeneID 69707),no change with or without drug,-1.8,1.52,-2.59,0.78
Scml4 (GeneID 268297),low cell count without drug only,-1.12,-2.19,0.45,0.84
Stmn4 (GeneID 56471),no change with or without drug,-0.45,-0.51,0,0.9
Tsks (GeneID 22116),no change with or without drug,0.9,-1.85,2.59,1.02
Ppib (GeneID 19035),no change with or without drug,-1.24,1.18,-1.91,0.83
Rad51 (GeneID 19361),no change with or without drug,-0.67,0.84,-1.12,0.88

The list goes on; the last 3 above are carried over.
target,combined z-score class,viability z-score with doxorubicin,viability z-score without drug,z-score of drug to no-drug ratio,doxorubicin viability vs non-targeting
Tsks (GeneID 22116),no change with or without drug,0.9,-1.85,2.59,1.02
Ppib (GeneID 19035),no change with or without drug,-1.24,1.18,-1.91,0.83
Rad51 (GeneID 19361),no change with or without drug,-0.67,0.84,-1.12,0.88
Cyp2c54 (GeneID 404195),no change with or without drug,1.12,-0.34,1.57,1.04
Ccpg1 (GeneID 72278),no change with or without drug,-0.79,-0.17,-0.56,0.87
Tdrd3 (GeneID 219249),no change with or without drug,-0.56,-0.51,-0.11,0.89
Esrrb (GeneID 26380),no change with or without drug,1.24,1.52,0.34,1.05
H6pd (GeneID 100198),no change with or without drug,0.45,-0.51,1.01,0.98
Tfpi2 (GeneID 21789),no change with or without drug,0.9,-0.51,1.46,1.02
Elf5 (GeneID 13711),high cell count without drug only,0.67,2.53,-0.79,1
Edc3 (GeneID 353190),no change with or without drug,-0.34,1.01,-0.9,0.91
Ostm1 (GeneID 14628),no change with or without drug,-1.12,-0.17,-1.01,0.84
Spp1 (GeneID 20750),no change with or without drug,1.8,1.85,0.67,1.1
Ubxn7 (GeneID 224111),no change with or without drug,1.12,0.67,0.79,1.04
Ctsz (GeneID 64138),no change with or without drug,1.12,-0.51,1.69,1.04
Megf9 (GeneID 230316),no change with or without drug,0.45,0.34,0.34,0.98
Rapgef5 (GeneID 217944),no change with or without drug,0.79,-0.17,1.01,1.01
